# PubChem BioAssay AID504791, Drosophila RNAi Screening Center – 2011
# Aim: 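Genes whose knock-down strengthens or weakens small-RNA reporter silencing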 (primary screen)
# Cells: Drosophila S2-derived reporter cells
# Reagents: long dsRNA against Drosophila genes, about 150-250 ng dsRNA per well (siRNA assay); about 80-120 ng (miRNA assay)
# Duration: about 5 days (siRNA assay); about 4 days (miRNA assay)
# Conditions: copper sulfate induction of reporters: 25 µM (siRNA assay); 200 mM stated (miRNA assay), 1-2 days before reading
# Detection: 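Per-well ratio of Renilla over firefly light, expressed relative to that plate's average ratio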
# Scale: siRNA reporter hit score: higher = 3 marks a strong hit with raised ratio; -3 a strong hit with lowered ratio
# Active means: 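a well was a first-pass pick when its plate-scaled ratio rose above 1.5 (siRNA assay) or 1.6 (miRNA assay), or dropped below 0.6; a gene counted only if two separate dsRNAs agreed on retest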
# In all, the deposit lists about 23,000 reagents; shown is an unselected part of those that have a named target and a result. Of all reagents, 199 (0.86%) were called active. 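Plate-scaled ratios behind the calls are not deposited; printed light signals are raw; many rows marked increased or decreased are still called inactive.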 Reagents against one gene are numbered here.
Target gene,reagent,siRNA reporter hit score,stable siRNA reporter change,miRNA reporter change,"stable assay Renilla, run 1 (luminescence)","stable assay firefly, run 1 (luminescence)",Call
kel,1,,,,7846,4.17e5,inactive
CG14565,1,,,,6639,3.56e5,inactive
CG17807,1,,,,50374,1.11e6,inactive
CG34188,1,,,,7336,3.89e5,inactive
Cyp28a5,1,,,,8615,1.92e6,inactive
CG16972,1,,,,9937,1.19e6,inactive
Wdr62,1,,,,5259,4.17e5,inactive
Wdr62,2,,,,5163,4.37e5,inactive
Wdr62,3,,,,17525,4.47e5,inactive
Wdr62,4,,,,9055,5.76e5,inactive
CG32537,1,,,,7825,4.71e5,inactive
RpL37-1,1,,,,5635,5.74e5,inactive
RpL37-1,2,,,,10132,4.11e5,inactive
Stlk,1,,,,3840,3.63e5,inactive
Pcyt2,1,,,,8450,3.02e5,inactive
Arp1,1,,,,6920,3.74e5,inactive
FucTB,1,,,,7379,3.26e5,inactive
CRMP,1,,,reporter ratio raised past the hit cutoff,5968,3.30e5,inactive
CRMP,2,,,,7291,4.40e5,inactive
Srlp,1,3,,reporter ratio raised past the hit cutoff,4971,3.44e5,inactive
Larp7,1,,,,6203,4.81e5,inactive
SmE,1,,reporter ratio raised past the hit cutoff,,11323,3.72e5,active
apt,1,,,,2.60e5,1.59e6,inactive
apt,2,,,,3756,3.32e5,inactive
CG13318,1,,,,6974,4.31e5,inactive
CG16890,1,,,,7814,1.36e6,inactive
Grx3,1,,,,9262,1.22e6,inactive
Cox11,1,,,,4875,4.94e5,inactive
CG17047,1,,,,6495,3.55e5,inactive
Elo68alpha,1,,,,4136,4.61e5,inactive
CG18269,1,,,,7506,4.47e5,inactive
MED1,1,,,,8553,3.60e5,inactive
cyst,1,,,,36651,1.13e6,inactive
Sf3a1,1,,reporter ratio lowered past the hit cutoff,,7935,5.32e5,active
mei-41,1,,,,4952,4.47e5,inactive
Mcm3,1,,,,6927,4.24e5,inactive
CG8329,1,,,,6424,3.38e5,inactive
CG5445,1,,,,5395,4.38e5,inactive
CG5445,2,,,,3323,2.98e5,inactive
Ref1,1,,,,4459,3.54e5,inactive
Ref1,2,,,,11227,6.41e5,inactive
CG9135,1,,,,26416,3.90e5,inactive
CG14095,1,,,,6939,3.80e5,inactive
CycB3,1,,,,6600,3.24e5,inactive
flz,1,,,,6827,3.95e5,inactive
Set2,1,,,,9467,5.59e5,inactive
Mical,1,,,,6451,4.75e5,inactive
Mical,2,,,,6452,5.01e5,inactive
Mical,3,,,,5022,3.74e5,inactive
Mical,4,,,,6338,4.86e5,inactive
CG3222,1,,,,5796,3.52e5,inactive
CG17078,1,,,,7250,3.90e5,inactive
ymp,1,,,,7867,5.52e5,inactive
ymp,2,,,,6326,3.34e5,inactive
HLH54F,1,,,,5946,3.59e5,inactive
ome,1,,,,5159,3.78e5,inactive
ome,2,,,,8508,4.45e5,inactive
ome,3,,,,7711,3.25e5,inactive
AhcyL1,1,,,,6482,4.29e5,inactive
Atxn7,1,,,,8559,1.38e5,inactive
Atxn7,2,,,,4023,3.20e5,inactive
Ent3,1,,,,7853,4.44e5,inactive
CG42720 (retired record),1,,,,4828,5.26e5,inactive
Idgf2,1,,,,22332,1.40e6,inactive
CG10565,1,,,,7895,4.50e5,inactive
CG10505,1,,,,5668,3.29e5,inactive
Trf2,1,3,,,4235,2.78e5,inactive
CG14607,1,,,,7171,3.90e5,inactive
CG31974,1,,,,7634,3.19e5,inactive
CG12116,1,,,,5318,2.62e5,inactive
cbc,1,,,,9014,5.58e5,inactive
Su(Tpl),1,,reporter ratio raised past the hit cutoff,,13180,1.90e5,active
Su(Tpl),2,,,reporter ratio raised past the hit cutoff,,,active
CG10958,1,,,,7968,5.48e5,inactive
CG12576,1,,,,6455,4.45e5,inactive
PlexB,1,,,,6671,3.78e5,inactive
Osi6,1,,,,6924,4.04e5,inactive
Hydr2,1,,,,29779,2.61e5,inactive
Gbs-70E,1,,,,7062,3.31e5,inactive
CG42570,1,,,,6332,6.12e5,inactive
TwdlV,1,,,,6274,3.19e5,inactive
Nnf1b,1,,,,8195,4.54e5,inactive
Uba3,1,,,,8675,3.85e5,inactive
